Among all 390,000 compounds or so, about 910 (0.23%) were called active. The shares of active, inactive and inconclusive entries below differ from those in the screen. The call rests on the fitted dose curve; in most records, active means well fitted inhibition curve with a large enough effect; inconclusive means small, poorly fitted or top-dose-only effect; inactive means no such curve, though single readings can be large or run the other way. Where the call is inconclusive, the potency comes from a doubtful curve fit.
Target: Ubiquitin carboxyl-terminal hydrolase 1 (Homo sapiens) (UniProt O94782)
Assay: Inhibitors of USP1/UAF1: Primary Screen; further: nearly all actives have a fitted effect of over 60% in size
Settings: recombinant USP1/UAF1, Ub-Rhodamine cleavage fluorescence; activity change, negative = inhibition: at 57.1 µM (top of the series)
How it was run: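 USP1/UAF1 complex (1 nM) preincubated 15 min at room temperature with compound, then Ub-Rho substrate (150 nM final) added. Kinetic fluorescence at 480/540 nm over 6 reads at 60 s intervals; 50 mM HEPES pH 7.8, 0.5 mM EDTA, 0.1 mg/ml BSA, 1 mM TCEP, 0.01% Tween-20.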
On the % scale 0 is the no-effect control and ±100 the full control effect; potency means the concentration at half of the fitted maximal effect.

Chains of the proteins cited; added tags and fusions are not shown. Lines headed by an entry give the natural chain unless they say otherwise; changes in a name come on top.
UniProt O94782: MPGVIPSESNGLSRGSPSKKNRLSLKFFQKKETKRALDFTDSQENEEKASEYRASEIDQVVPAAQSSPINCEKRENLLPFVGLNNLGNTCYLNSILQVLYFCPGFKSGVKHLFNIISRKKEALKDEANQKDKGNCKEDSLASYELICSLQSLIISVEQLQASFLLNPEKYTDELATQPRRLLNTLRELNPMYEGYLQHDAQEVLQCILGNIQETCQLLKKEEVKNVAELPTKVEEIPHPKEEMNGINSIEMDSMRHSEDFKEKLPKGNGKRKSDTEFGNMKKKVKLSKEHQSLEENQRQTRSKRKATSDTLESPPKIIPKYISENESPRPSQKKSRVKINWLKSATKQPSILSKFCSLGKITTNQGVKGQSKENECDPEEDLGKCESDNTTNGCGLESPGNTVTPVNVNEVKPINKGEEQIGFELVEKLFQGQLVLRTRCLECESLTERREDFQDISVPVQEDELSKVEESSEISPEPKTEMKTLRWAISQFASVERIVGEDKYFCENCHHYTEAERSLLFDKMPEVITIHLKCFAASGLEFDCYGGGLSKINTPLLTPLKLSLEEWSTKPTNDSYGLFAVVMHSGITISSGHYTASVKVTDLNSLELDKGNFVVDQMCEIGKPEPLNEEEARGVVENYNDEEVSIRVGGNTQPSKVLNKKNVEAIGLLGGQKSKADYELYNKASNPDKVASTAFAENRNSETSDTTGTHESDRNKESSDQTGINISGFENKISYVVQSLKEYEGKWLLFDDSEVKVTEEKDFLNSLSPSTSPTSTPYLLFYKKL

Compound | activity change, negative = inhibition | Potency
COc1ccc(Cn2c(CO)cnc2SCC(=O)Nc2cccc(NC(C)=O)c2)cc1 | inactive: -5.68% | –
Cc1ccc2c(c1)c(=O)c1ccccc1n2CCCC(=O)Nc1c(F)cccc1F | – | inconclusive: 0.631 µM [inhibitor, full curve, poor fit]
CCOC(=O)CNS(=O)(=O)c1ccc2c3c(cccc13)C(=O)N2CC | – | inconclusive: 5.01 µM [inhibitor, partial curve]
CC(=O)Nc1nc(-c2ccc3ccccc3c2)cs1 | inactive: -20.5% | –
CCOC(=O)CC1C(=O)NCCN1c1nc2c(C)cccn2c(=O)c1/C=C1\SC(=S)N(C(C)CC)C1=O (stereo not drawn) | – | active: 8.91 µM
NS(=O)(=O)c1ccc2c(c1)C1C=CCC1C(C1CC=CCC1)N2 (stereo not drawn) | inactive: -23.9% | –
O=C(CSc1ccc2nnc(-c3ccccn3)n2n1)Nc1ccccc1C(F)(F)F | – | inconclusive: 39.8 µM [inhibitor, partial curve, poor fit]
C/C(=N\NC(=O)c1ccccc1-n1cccc1)c1ccccn1 | – | inconclusive: 0.126 µM [inhibitor, full curve, poor fit]
CC(C)n1nnnc1SCC(=O)c1ccc2c(c1)OCCO2 | inactive: 0.421% | –
CC(=O)N1CCCc2cc(S(=O)(=O)N3CCCC(C(=O)N4CCN(c5cc(C)ccc5C)CC4)C3)ccc21 (stereo not drawn) | – | inconclusive: 7.08 µM [inhibitor, full curve, poor fit]
Cc1cc2ccccc2nc1SCC(=O)NC1CCCC1 | – | inconclusive: 31.6 µM [inhibitor, partial curve]
O=C(NCc1ccco1)/C(=C/c1ccc(C(F)(F)F)cc1)c1nc2ccccc2[nH]1 | inactive: -8.35% | –
O=C1c2ccccc2S(=O)(=O)c2cc(-c3nn[nH]n3)ccc21 | – | inconclusive: 39.8 µM [inhibitor, partial curve]
C/C(=N\NC(=O)NC1CCCCC1)c1ccco1 | – | inconclusive: 35.5 µM [inhibitor, single point]
COc1ccc(OC)c(-c2cc(C(=O)Nc3ccccc3C(N)=O)c3ccccc3n2)c1 | – | inconclusive: 31.6 µM [inhibitor, partial curve]
O=C(O)CCCn1cc(NC(=O)c2cccc(F)c2)cn1 | inactive: -15.7% | –
CN(Cc1ccco1)S(=O)(=O)c1nnc(NC(=O)c2cccc(Cl)c2)s1 | – | inactive
COCCNC(=O)CSc1nc(-c2ccccc2C)nc2c1c(=O)n(C)c(=O)n2C | inactive: -8.76% | –
CCCCCCNC(=O)O[C@H]1Cn2c(=O)n(CCCCCC)c(=O)n2[C@@H]2CN(S(=O)(=O)c3ccc(C)cc3)C[C@]12O | – | inconclusive: 50.1 µM [inhibitor, partial curve, poor fit]
N/C(CN1CCSCC1)=N\OCc1c(F)cccc1Cl | – | inconclusive: 10 µM [inhibitor, partial curve, poor fit]
Cc1cc(C)cc(OCC(=O)Nc2ccc(CN3CCCCC3)cc2)c1 | – | inconclusive: 4.47 µM [inhibitor, partial curve]
Cc1ccc(SC[C@H](Cc2ccccc2)N2CC[C@@H](C)CCC2=O)cc1 | – | inconclusive: 0.251 µM [inhibitor, full curve, poor fit]

Entries of single compounds, looked up by structure.
CCCCCCNC(=O)O[C@H]1Cn2c(=O)n(CCCCCC)c(=O)n2[C@@H]2CN(S(=O)(=O)c3ccc(C)cc3)C[C@]12O in the list: Potency: inconclusive: 50.1 µM [inhibitor, partial curve, poor fit]
CN(Cc1ccco1)S(=O)(=O)c1nnc(NC(=O)c2cccc(Cl)c2)s1 in the list: Potency: inactive
O=C(NCc1ccco1)/C(=C/c1ccc(C(F)(F)F)cc1)c1nc2ccccc2[nH]1 in the list: activity change, negative = inhibition: inactive: -8.35%

The listing continues:

Compound | activity change, negative = inhibition | Potency
NC(=N\N=Cc1ccco1)/C(N)=N/N=Cc1ccco1 | – | inconclusive: 2 µM [inhibitor, full curve]
CSc1cc(-c2ccccc2)n(C)c(=O)c1C#N | – | inconclusive: 4.47 µM [inhibitor, full curve, poor fit]
CC(=O)c1cc(NC(=O)c2ccc([N+](=O)[O-])cc2)c(=O)oc1C | – | inconclusive: 39.8 µM [inhibitor, partial curve, poor fit]
COC(=O)c1sccc1Oc1c(Cl)cccc1[N+](=O)[O-] | – | inconclusive: 25.1 µM [inhibitor, partial curve]
COc1ccccc1NS(=O)(=O)c1cccc(NC(=O)Nc2ccc(Cl)cc2)c1 | inactive: -16% | –
O=C(NC1CCCCC1)N1CCc2ccccc21 | inactive: -25.8% | –
O=C(C1CCN(S(=O)(=O)c2cccc3cccnc23)CC1)N1CCN(c2ccc(Cl)cc2)CC1 | – | inconclusive: 10 µM [inhibitor, partial curve]
O=C(Nc1cccc(-n2cnnn2)c1)c1ccc(OC(F)(F)F)cc1 | – | inconclusive: 50.1 µM [inhibitor, partial curve, poor fit]
O=C1c2ccccc2C(=O)c2c1oc(C(F)(F)F)c2C(=O)c1ccccc1 | – | inconclusive: 17.8 µM [inhibitor, partial curve]
CS(=O)(=O)N(Cc1ccc(Cl)cc1)c1ccc(C(=O)NCC2CCCO2)cc1 (stereo not drawn) | – | inconclusive: 7.08 µM [inhibitor, single point]
COc1ccccc1NC(=O)c1sc2nc(C)c(C(=O)Nc3ccc(C)cc3C)c(-c3ccc(C)o3)c2c1N | – | active: 31.6 µM
COc1cccc(CNC(=O)CCc2c(C)c3cc4c(C)coc4c(C)c3oc2=O)c1 | inactive: -0.244% | –
O=C(c1ccccc1)N(Cc1ccco1)Cc1cccs1 | inactive: 2.34% | –
Cc1ccc(C)c(Cn2c(=O)cc(C)c3c(C)nn(C)c32)c1 | inactive: -13.4% | –
COc1ccc(-c2noc(CSc3nnc(-c4ccncc4)n3-c3ccc(C)c(C)c3)n2)cc1 | – | inconclusive: 0.251 µM [inhibitor, full curve, poor fit]
CCOC(=O)N1CCC(Nc2ccc3nnc(-c4ccccc4)n3n2)CC1 | – | inconclusive: 39.8 µM [inhibitor, partial curve]
Cc1ccc(-c2nc3ccccn3c2NC(=O)c2ccco2)cc1 | – | inconclusive: 31.6 µM [inhibitor, partial curve]
C/C(=N\NC(=O)C1CC1)c1ccccc1O | – | inconclusive: 4.47 µM [inhibitor, single point]
Cc1cccc2cc3c(N)c(C(=O)N4CCCc5ccccc54)sc3nc12 | – | inconclusive: 35.5 µM [inhibitor, partial curve, poor fit]
O=C1c2oc3ccccc3c(=O)c2C(c2cccc(Br)c2)N1c1ccccn1 (stereo not drawn) | – | inconclusive: 11.2 µM [inhibitor, partial curve, poor fit]
O=C(NCCc1cccs1)C1CC(c2ccc([N+](=O)[O-])cc2)=NO1 (stereo not drawn) | – | inconclusive: 2.82 µM [inhibitor, full curve, poor fit]

— PubChem BioAssay AID743255 (National Center for Advancing Translational Sciences (NCATS), 2014)
